# The supplement of paper PMC4604168 (melanoma cell lines)
# The list shows a part of the results. Repeats are few or missing, and single values can be far off.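 The apoptosis fraction was the count of cleaved-PARP antibody-stained nuclei relative to all DNA-stained nuclei, imaged in 1,536-well plates. Screening doses were set so most cells survived, and baseline and induced cleaved-PARP levels vary greatly across cell lines.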
# Tests used:
# Assay in all cases: cleaved PARP positive nuclei fraction relative to DMSO control; melanoma cells; higher = more apoptosis
# Conditions in all cases: library dose: low library concentration; 72 h
# [1] = test system: MZ2-MEL
# [2] = test system: MeWo
# [3] = test system: RPMI7951
# [4] = test system: RVH-421
# [5] = test system: SkMel28
# [6] = test system: SkMel2
# [7] = test system: SkMel30
# [8] = test system: UACC62
# [9] = test system: WM115
# [10] = test system: WM1716
# [11] = test system: WM1745
# [12] = test system: WM3526
# [13] = test system: WM3619
# [14] = test system: WM451Lu
structure (smiles),measurement,setting,value
"Nc1ncn([C@H]2C[C@H](O)[C@@H](CO)O2)c(=O)n1 [decitabine] + CC(=O)c1c(C)c2cnc(Nc3ccc(N4CCNCC4)cn3)nc2n(C2CCCC2)c1=O [palbociclib] (first compound 0.1 µM, partner dose 0.04 µM)",cleaved PARP positive nuclei fraction,[1],25.9%
same,cleaved PARP positive nuclei fraction,[2],69.8%
same,cleaved PARP positive nuclei fraction,[3],157%
same,cleaved PARP positive nuclei fraction,[4],85.2%
same,cleaved PARP positive nuclei fraction,[5],68.8%
same,cleaved PARP positive nuclei fraction,[6],37.4%
same,cleaved PARP positive nuclei fraction,[7],112%
same,cleaved PARP positive nuclei fraction,[8],139%
same,cleaved PARP positive nuclei fraction,[9],95.3%
same,cleaved PARP positive nuclei fraction,[10],110%
same,cleaved PARP positive nuclei fraction,[11],124%
same,cleaved PARP positive nuclei fraction,[12],72.3%
same,cleaved PARP positive nuclei fraction,[13],110%
same,cleaved PARP positive nuclei fraction,[14],52.7%
"CN1CCN(c2ccc3nc(-c4c(N)c5c(F)cccc5[nH]c4=O)[nH]c3c2)CC1 [Dovitinib] + Nc1cccc2c1CN(C1CCC(=O)NC1=O)C2=O [lenalidomide] (first compound 0.1 µM, partner dose 1 µM)",cleaved PARP positive nuclei fraction,[1],42.8%
same,cleaved PARP positive nuclei fraction,[2],110%
same,cleaved PARP positive nuclei fraction,[3],89.9%
same,cleaved PARP positive nuclei fraction,[4],83.1%
same,cleaved PARP positive nuclei fraction,[5],49.3%
same,cleaved PARP positive nuclei fraction,[6],66.5%
same,cleaved PARP positive nuclei fraction,[7],212%
same,cleaved PARP positive nuclei fraction,[8],72.1%
same,cleaved PARP positive nuclei fraction,[9],133%
same,cleaved PARP positive nuclei fraction,[10],136%
same,cleaved PARP positive nuclei fraction,[11],123%
same,cleaved PARP positive nuclei fraction,[12],89.2%
same,cleaved PARP positive nuclei fraction,[13],91.8%
same,cleaved PARP positive nuclei fraction,[14],51.9%
"Nc1nc(F)nc2c1ncn2[C@@H]1O[C@H](CO)[C@@H](O)[C@@H]1O [fludarabine] + Cc1nc(Nc2ncc(C(=O)Nc3c(C)cccc3Cl)s2)cc(N2CCN(CCO)CC2)n1 [dasatanib] (first compound 0.2 µM, partner dose 0.004 µM)",cleaved PARP positive nuclei fraction,[1],108%
same,cleaved PARP positive nuclei fraction,[2],2540%
same,cleaved PARP positive nuclei fraction,[3],185%
same,cleaved PARP positive nuclei fraction,[4],185%
same,cleaved PARP positive nuclei fraction,[5],63.8%
same,cleaved PARP positive nuclei fraction,[6],380%
same,cleaved PARP positive nuclei fraction,[7],756%
same,cleaved PARP positive nuclei fraction,[8],89.6%
same,cleaved PARP positive nuclei fraction,[9],261%
same,cleaved PARP positive nuclei fraction,[10],178%
same,cleaved PARP positive nuclei fraction,[11],134%
same,cleaved PARP positive nuclei fraction,[12],355%
same,cleaved PARP positive nuclei fraction,[13],92.1%
same,cleaved PARP positive nuclei fraction,[14],269%
"CNC(=O)c1cc(Oc2ccc(NC(=O)Nc3ccc(Cl)c(C(F)(F)F)c3)cc2)ccn1 [sorafenib] + Clc1ccc(Nc2nnc(Cc3ccncc3)c3ccccc23)cc1 [vatalanib] (first compound 0.4 µM, partner dose 2 µM)",cleaved PARP positive nuclei fraction,[1],60.4%
same,cleaved PARP positive nuclei fraction,[2],189%
same,cleaved PARP positive nuclei fraction,[3],101%
same,cleaved PARP positive nuclei fraction,[4],223%
same,cleaved PARP positive nuclei fraction,[5],172%
same,cleaved PARP positive nuclei fraction,[6],79.8%
same,cleaved PARP positive nuclei fraction,[7],23.3%
same,cleaved PARP positive nuclei fraction,[8],282%
same,cleaved PARP positive nuclei fraction,[9],121%
same,cleaved PARP positive nuclei fraction,[10],66.3%
same,cleaved PARP positive nuclei fraction,[11],93.1%
same,cleaved PARP positive nuclei fraction,[12],236%
same,cleaved PARP positive nuclei fraction,[13],94.5%
same,cleaved PARP positive nuclei fraction,[14],60.5%
"Nc1ccn([C@@H]2O[C@H](CO)[C@@H](O)C2(F)F)c(=O)n1 [gemcitabine] + C=CCNC1=C2C[C@@H](C)C[C@H](OC)[C@H](O)[C@@H](C)/C=C(\C)[C@H](OC(N)=O)[C@@H](OC)/C=C\C=C(/C)C(=O)NC(=CC1=O)C2=O [Tanespimycin] (first compound 0.0004 µM, partner dose 0.002 µM)",cleaved PARP positive nuclei fraction,[1],133%
same,cleaved PARP positive nuclei fraction,[2],46.4%
same,cleaved PARP positive nuclei fraction,[3],47%
same,cleaved PARP positive nuclei fraction,[4],60.2%
same,cleaved PARP positive nuclei fraction,[5],39.1%
same,cleaved PARP positive nuclei fraction,[6],81.7%
same,cleaved PARP positive nuclei fraction,[7],59.7%
same,cleaved PARP positive nuclei fraction,[8],176%
same,cleaved PARP positive nuclei fraction,[9],72.7%
same,cleaved PARP positive nuclei fraction,[10],378%
same,cleaved PARP positive nuclei fraction,[11],137%
same,cleaved PARP positive nuclei fraction,[12],92.6%
same,cleaved PARP positive nuclei fraction,[13],203%
same,cleaved PARP positive nuclei fraction,[14],76.2%
"CS(=O)(=O)CCNCc1ccc(-c2ccc3ncnc(Nc4ccc(OCc5cccc(F)c5)c(Cl)c4)c3c2)o1 [lapatinib] + Nc1ncn([C@H]2C[C@H](O)[C@@H](CO)O2)c(=O)n1 [decitabine] (first compound 0.8 µM, partner dose 0.1 µM)",cleaved PARP positive nuclei fraction,[1],135%
same,cleaved PARP positive nuclei fraction,[2],77.3%
same,cleaved PARP positive nuclei fraction,[3],123%
same,cleaved PARP positive nuclei fraction,[4],108%
same,cleaved PARP positive nuclei fraction,[5],47.7%
same,cleaved PARP positive nuclei fraction,[6],191%
same,cleaved PARP positive nuclei fraction,[7],97.5%
same,cleaved PARP positive nuclei fraction,[8],83.5%
same,cleaved PARP positive nuclei fraction,[9],72.6%
same,cleaved PARP positive nuclei fraction,[10],75.4%
same,cleaved PARP positive nuclei fraction,[11],88.4%
same,cleaved PARP positive nuclei fraction,[12],38.4%
same,cleaved PARP positive nuclei fraction,[13],108%
same,cleaved PARP positive nuclei fraction,[14],36.8%
"C=C(c1ccc(C(=O)O)cc1)c1cc2c(cc1C)C(C)(C)CCC2(C)C [Bexarotene] + OCc1c[nH]c2ccccc12 [Indole-3-carbinol] (first compound 2 µM, partner dose 0.8 µM)",cleaved PARP positive nuclei fraction,[1],94.6%
same,cleaved PARP positive nuclei fraction,[2],72%
same,cleaved PARP positive nuclei fraction,[3],191%
same,cleaved PARP positive nuclei fraction,[4],110%
same,cleaved PARP positive nuclei fraction,[5],386%
same,cleaved PARP positive nuclei fraction,[6],91.2%
same,cleaved PARP positive nuclei fraction,[7],43.8%
same,cleaved PARP positive nuclei fraction,[8],131%
same,cleaved PARP positive nuclei fraction,[9],51.9%
same,cleaved PARP positive nuclei fraction,[10],91%
same,cleaved PARP positive nuclei fraction,[11],86.8%
same,cleaved PARP positive nuclei fraction,[12],173%
same,cleaved PARP positive nuclei fraction,[13],95.3%
same,cleaved PARP positive nuclei fraction,[14],60.9%
"O=C(O)[C@@H]1[O][Sb](=[O])([O][Sb]2(=[O])[O][C@H]([C@H](O)CO)[C@H](O)[C@H](C(=O)O)[O]2)[O][C@H]([C@H](O)CO)[C@@H]1O (stereo partly specified) [stibogluconate] + COc1ccc(Cl)c(Nc2nc3ccccc3nc2NS(=O)(=O)c2cccc(NC(=O)C(C)(C)N)c2)c1 [XL147] (first compound 2 µM, partner dose 0.8 µM)",cleaved PARP positive nuclei fraction,[1],130%
same,cleaved PARP positive nuclei fraction,[2],159%
same,cleaved PARP positive nuclei fraction,[3],64.4%
same,cleaved PARP positive nuclei fraction,[4],153%
same,cleaved PARP positive nuclei fraction,[5],146%
same,cleaved PARP positive nuclei fraction,[6],163%
same,cleaved PARP positive nuclei fraction,[7],14.3%
same,cleaved PARP positive nuclei fraction,[8],54.7%
same,cleaved PARP positive nuclei fraction,[9],121%
same,cleaved PARP positive nuclei fraction,[10],196%
same,cleaved PARP positive nuclei fraction,[11],99.7%
same,cleaved PARP positive nuclei fraction,[12],53.9%
same,cleaved PARP positive nuclei fraction,[13],82.2%
same,cleaved PARP positive nuclei fraction,[14],48.9%
"CN1CCN(c2ccc3nc(-c4c(N)c5c(F)cccc5[nH]c4=O)[nH]c3c2)CC1 [Dovitinib] + O=C(O)[C@@H]1[O][Sb](=[O])([O][Sb]2(=[O])[O][C@H]([C@H](O)CO)[C@H](O)[C@H](C(=O)O)[O]2)[O][C@H]([C@H](O)CO)[C@@H]1O [stibogluconate] (first compound 0.1 µM, partner dose 2 µM)",cleaved PARP positive nuclei fraction,[1],147%
same,cleaved PARP positive nuclei fraction,[2],74.7%
same,cleaved PARP positive nuclei fraction,[3],146%
same,cleaved PARP positive nuclei fraction,[4],31.2%
same,cleaved PARP positive nuclei fraction,[5],86%
same,cleaved PARP positive nuclei fraction,[6],54.8%
same,cleaved PARP positive nuclei fraction,[7],164%
same,cleaved PARP positive nuclei fraction,[8],133%
same,cleaved PARP positive nuclei fraction,[9],229%
same,cleaved PARP positive nuclei fraction,[10],174%
same,cleaved PARP positive nuclei fraction,[11],98.1%
same,cleaved PARP positive nuclei fraction,[12],21.5%
same,cleaved PARP positive nuclei fraction,[13],80.2%
same,cleaved PARP positive nuclei fraction,[14],34.8%

# Already shown: entries from further up.
structure (smiles),measurement,setting,value
"Nc1ccn([C@@H]2O[C@H](CO)[C@@H](O)C2(F)F)c(=O)n1 [gemcitabine] + C=CCNC1=C2C[C@@H](C)C[C@H](OC)[C@H](O)[C@@H](C)/C=C(\C)[C@H](OC(N)=O)[C@@H](OC)/C=C\C=C(/C)C(=O)NC(=CC1=O)C2=O [Tanespimycin] (first compound 0.0004 µM, partner dose 0.002 µM)",cleaved PARP positive nuclei fraction,[8],176%
same,cleaved PARP positive nuclei fraction,[9],72.7%

# 4 records drawn at random from the list so far:
structure (smiles),measurement,setting,value
"C=C(c1ccc(C(=O)O)cc1)c1cc2c(cc1C)C(C)(C)CCC2(C)C [Bexarotene] + OCc1c[nH]c2ccccc12 [Indole-3-carbinol] (first compound 2 µM, partner dose 0.8 µM)",cleaved PARP positive nuclei fraction,[6],91.2%
"CN1CCN(c2ccc3nc(-c4c(N)c5c(F)cccc5[nH]c4=O)[nH]c3c2)CC1 [Dovitinib] + O=C(O)[C@@H]1[O][Sb](=[O])([O][Sb]2(=[O])[O][C@H]([C@H](O)CO)[C@H](O)[C@H](C(=O)O)[O]2)[O][C@H]([C@H](O)CO)[C@@H]1O [stibogluconate] (first compound 0.1 µM, partner dose 2 µM)",cleaved PARP positive nuclei fraction,[8],133%
"C=C(c1ccc(C(=O)O)cc1)c1cc2c(cc1C)C(C)(C)CCC2(C)C [Bexarotene] + OCc1c[nH]c2ccccc12 [Indole-3-carbinol] (first compound 2 µM, partner dose 0.8 µM)",cleaved PARP positive nuclei fraction,[3],191%
"Nc1nc(F)nc2c1ncn2[C@@H]1O[C@H](CO)[C@@H](O)[C@@H]1O [fludarabine] + Cc1nc(Nc2ncc(C(=O)Nc3c(C)cccc3Cl)s2)cc(N2CCN(CCO)CC2)n1 [dasatanib] (first compound 0.2 µM, partner dose 0.004 µM)",cleaved PARP positive nuclei fraction,[12],355%
